In paper PMC11194096:
Results are given in words; binding and its absence hold for the method and conditions named. In cells and extracts the contact can be indirect. These calls come from enrichment with a bait or labelling near it, and not all partners need be listed.

Sequences of proteins named here, by UniProt entry; tags and fusion partners are left off. Residues count along the entry.
UniProt P53395, residues 62-482: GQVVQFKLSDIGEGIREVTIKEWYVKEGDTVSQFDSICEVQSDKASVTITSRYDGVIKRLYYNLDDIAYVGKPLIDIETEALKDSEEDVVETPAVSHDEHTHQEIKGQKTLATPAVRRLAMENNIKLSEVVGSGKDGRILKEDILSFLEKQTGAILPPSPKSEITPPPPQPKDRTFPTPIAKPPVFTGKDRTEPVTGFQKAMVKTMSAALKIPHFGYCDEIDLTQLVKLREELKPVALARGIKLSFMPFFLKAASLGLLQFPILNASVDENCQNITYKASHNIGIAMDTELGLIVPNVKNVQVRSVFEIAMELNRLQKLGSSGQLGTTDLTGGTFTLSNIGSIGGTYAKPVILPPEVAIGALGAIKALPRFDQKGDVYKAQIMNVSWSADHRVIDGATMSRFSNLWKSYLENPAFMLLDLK

T1: MCCA (mouse (endogenous in heart)) (UniProt Q99MR8)
T1 sequence: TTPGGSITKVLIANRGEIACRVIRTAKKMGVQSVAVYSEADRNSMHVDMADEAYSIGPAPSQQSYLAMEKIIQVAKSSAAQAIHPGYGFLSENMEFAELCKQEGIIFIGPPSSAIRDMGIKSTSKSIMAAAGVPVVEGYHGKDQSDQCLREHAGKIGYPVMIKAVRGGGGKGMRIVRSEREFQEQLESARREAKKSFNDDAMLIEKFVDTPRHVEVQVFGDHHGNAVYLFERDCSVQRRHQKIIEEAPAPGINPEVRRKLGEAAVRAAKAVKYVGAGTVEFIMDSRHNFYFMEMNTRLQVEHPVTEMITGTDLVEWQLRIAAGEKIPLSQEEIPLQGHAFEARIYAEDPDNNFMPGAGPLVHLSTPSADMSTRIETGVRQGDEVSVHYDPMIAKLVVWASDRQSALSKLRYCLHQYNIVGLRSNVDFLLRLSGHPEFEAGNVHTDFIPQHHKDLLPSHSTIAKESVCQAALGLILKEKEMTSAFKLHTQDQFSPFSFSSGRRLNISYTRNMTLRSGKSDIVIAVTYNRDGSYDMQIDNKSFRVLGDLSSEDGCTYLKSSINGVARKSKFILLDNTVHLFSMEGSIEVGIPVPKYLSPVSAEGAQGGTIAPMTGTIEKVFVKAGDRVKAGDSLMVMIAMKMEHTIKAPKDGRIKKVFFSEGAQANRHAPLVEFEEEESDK


Columns and labels:
[1] = biological target: DBT, dihydrolipoyl transacylase (E2 component of the BCKDH complex) (mouse (endogenous in heart)) (UniProt P53395); experiment: affinity purification with mass spectrometry; immunoprecipitation with 2 ug antibody against DBT or MCCA and G-Sepharose beads from 1 mg heart protein lysate in RIPA buffer (50 mM Tris-HCl pH 7.4, 1% NP-40, 0.25% sodium deoxycholate, 150 mM NaCl), overnight at 4°C, three washes with RIPA; bound proteins analysed by mass spectrometry; hearts of WT and mitolnc-deficient mice, no apparent differences in composition
[2] = biological target: T1, MCCA (mouse (endogenous in heart)); experiment: as above

binding [1]	binding [2]	Binder
binds	binds	BCKDHA (E1 subunit of the BCKDH complex) (protein, UniProt P50136 43-442) PSLDDKPQFPGASAEFVDKLEFIQPNVISGIPIYRVMDRQGQIINPSEDPHLPQEEVLKFYRSMTLLNTMDRILYESQREGRISFYMTNYGEEGTHVGSAAALERTDLVFGQYREAGVLMYRDYPLELFMSQCYGNVNDPGKGRQMPVHYGCKERHFVTISSPLATQIPQAVGAAYAAKRANANRIVICYFGEGAASEGDAHAGFNFAATLECPIIFFCRNNGYAISTPTSEQYRGDGIAARGPGYGIKSIRVDGNDVFAVYNATKEARRRAVAENQPFLIEAMTYRIGHHSTSDDSSAYRSVDEVNYWDKQDHPISRLRQYLLNQGWWDEEQEKAWRKQSRKKVMEAFEQAERKLKPNPSLLFSDVYQEMPAQLRRQQESLARHLQTYGEHYPLDHFEK
binds	binds	DLD, FAD-dependent dihydrolipoyl dehydrogenase (E3 component of the BCKDH complex) (protein, UniProt O08749 36-509) ADQPIEADVTVIGSGPGGYVAAIKSAQLGFKTVCIEKNETLGGTCLNVGCIPSKALLNNSHYYHMAHGKDFASRGIEIPEVRLNLEKMMEQKHSAVKALTGGIAHLFKQNKVVHVNGFGKITGKNQVTATKADGSTQVIDTKNILVATGSEVTPFPGITIDEDTIVSSTGALSLKKVPEKLVVIGAGVIGVELGSVWQRLGADVTAVEFLGHVGGIGIDMEISKNFQRILQRQGFKFKLNTKVTGATKKSDGKIDVSVEAASGGKAEVITCDVLLVCIGRRPFTQNLGLEELGIELDPKGRIPVNNRFQTKIPNIYAIGDVVAGPMLAHKAEDEGIICVEGMAGGAVHIDYNCVPSVIYTHPEVAWVGKSEEQLKEEGIEFKIGKFPFAANSRAKTNADTDGMVKILGHKSTDRVLGAHILGPGAGEMVNEAALALEYGASCEDIARVCHAHPTLSEAFREANLAAAFGKPINF
binds	binds	BCKDHB (E1 subunit of the BCKDH complex) (protein, UniProt Q6P3A8 49-390) VAHFTFHPDPESLQYGQTQKMNLFQSITSALDNSLAKDPTAVIFGEDVAFGGVFRCTVGLRDKYGKDRVFNTPLCEQGIVGFGIGIAVTGATAIAEIQFADYIFPAFDQIVNEAAKYRYRSGDLFNCGSLTIRAPWGCVGHGALYHSQSPEAFFAHCPGIKVVIPRSPFQAKGLLLSCIEDKNPCIFFEPKILYRAAVEQVPVEPYKIPLSQAEVIQEGSDVTLVAWGTQVHVIREVASMAQEKLGVSCEVIDLRTIVPWDVDTVCKSVIKTGRLLISHEAPLTGGFASEISSTVQEECFLNLEAPISRVCGYDTPFPHIFEPFYIPDKWKCYDALRKMINY
